Results on one sequence are retold here after patent publication US20090099105.

For at least one entry, the source does not settle the construct or the ends of the probe. Tags and fusion partners may be left off the protein sequences shown.

In general, Kd refers to the concentration at which binding is half-saturated.

This series has as its target T1, APOBEC-1 complementation factor (ACF) (UniProt Q9NQ94).
T1 sequence (looked up, limits assumed): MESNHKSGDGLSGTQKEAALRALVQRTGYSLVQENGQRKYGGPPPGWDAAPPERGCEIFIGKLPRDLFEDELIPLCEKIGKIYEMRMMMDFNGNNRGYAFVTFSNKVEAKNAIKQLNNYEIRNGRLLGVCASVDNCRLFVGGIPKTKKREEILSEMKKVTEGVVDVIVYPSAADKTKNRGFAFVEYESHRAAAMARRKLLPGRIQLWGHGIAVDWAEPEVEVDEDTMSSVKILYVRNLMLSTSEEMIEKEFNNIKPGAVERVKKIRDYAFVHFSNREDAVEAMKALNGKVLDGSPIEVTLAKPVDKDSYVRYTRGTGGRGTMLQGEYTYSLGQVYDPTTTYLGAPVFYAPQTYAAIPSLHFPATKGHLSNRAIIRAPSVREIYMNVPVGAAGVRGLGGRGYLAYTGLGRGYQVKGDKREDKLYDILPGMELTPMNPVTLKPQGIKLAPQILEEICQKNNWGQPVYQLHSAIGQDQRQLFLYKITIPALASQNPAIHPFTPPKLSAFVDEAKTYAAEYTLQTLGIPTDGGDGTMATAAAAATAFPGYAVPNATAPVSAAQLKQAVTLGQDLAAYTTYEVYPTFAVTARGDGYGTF
Kind of series: binding assay. Particulars: CITED background value, no experiment described; source of protein not stated; flanks deaminated C6666; purified recombinant protein.

On to “UGAUCAGUAUA [apoB mRNA mooring sequence]”, for which the equilibrium dissociation constant (Kd) stood at 8 nM.
